PubChem BioAssay AID743454 – Peter MacCallum Cancer Centre, 2014

Purpose: 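Genes whose loss kills vorinostat-resistant colon cancer cells under vorinostat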 (primary screen)
Cell system: human HCT116-VR colon cancer cells, selected for vorinostat resistance
Reagents: siRNA pool against human genes, 40 nM siRNA pool
Time to read-out: vorinostat for 24 h, read-out about 72 h after transfection
Treatment: vorinostat at 2.5 µM final
Measured: 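Two measures, CellTiter-Fluor viability and luminescent caspase 3/7 activity, each as fold change against same-plate mock wells, mean of duplicates, then screen-wide robust z-score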
Reading the numbers: viability robust z-score: higher = more viable cells than screen typical; caspase robust z-score: higher = more caspase 3/7 activity than screen typical
Hit rule: 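Hits are knock-downs in viability class RV1/RV2 or caspase class CA1/CA2, excluding ones that killed cells in the no-drug cell-count arm; hits then retested with single siRNAs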
In all, the deposit lists about 18,000 reagents; below is a random part of them. In the full data, 450 (2.5%) are marked active. 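Single biological run; no consistent viability z cut-off exists, so the class columns, not z-scores, define the calls.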 Entries without a mark were called inactive.

MRPL11 — viability hit class = no change; caspase hit class = no change; viability robust z-score = -2.88; caspase robust z-score = 1.77
ACTL9 — viability hit class = no change; caspase hit class = no change; viability robust z-score = -1.17; caspase robust z-score = 1.15
FDXR — viability hit class = no change; caspase hit class = no change; viability robust z-score = 1.14; caspase robust z-score = -0.23
TFRC — viability hit class = no change; caspase hit class = no change; viability robust z-score = 0.2; caspase robust z-score = 0.36
PLPP5 — viability hit class = no change; caspase hit class = no change; viability robust z-score = -0.1; caspase robust z-score = -0.26
GOSR2 — viability hit class = no change; caspase hit class = no change; viability robust z-score = 0.79; caspase robust z-score = -0.3
FZD6 — viability hit class = no change; caspase hit class = no change; viability robust z-score = 0.74; caspase robust z-score = -0.4
USP44 — viability hit class = no change; caspase hit class = no change; viability robust z-score = 1.48; caspase robust z-score = 0.38
ATG4D — viability hit class = no change; caspase hit class = no change; viability robust z-score = -1.4; caspase robust z-score = -0.71
ITPA — viability hit class = no change; caspase hit class = no change; viability robust z-score = -0.96; caspase robust z-score = -0.46
CCDC15 — viability hit class = no change; caspase hit class = no change; viability robust z-score = 0.78; caspase robust z-score = 2.8
C9orf72 — viability hit class = no change; caspase hit class = no change; viability robust z-score = 0.36; caspase robust z-score = -1.06
SLC14A1 — viability hit class = no change; caspase hit class = no change; viability robust z-score = -0.02; caspase robust z-score = 0.01
UQCR10 — viability hit class = no change; caspase hit class = no change; viability robust z-score = 0.61; caspase robust z-score = 1.39
C12orf71 — viability hit class = no change; caspase hit class = no change; viability robust z-score = -0.64; caspase robust z-score = 2.29
COX16 — viability hit class = no change; caspase hit class = no change; viability robust z-score = 0.44; caspase robust z-score = 1.95
TIMM22 — viability hit class = no change; caspase hit class = no change; viability robust z-score = -0.46; caspase robust z-score = -0.82
KCNIP1 — viability hit class = no change; caspase hit class = no change; viability robust z-score = -0.6; caspase robust z-score = 0.84
BAG4 — viability hit class = no change; caspase hit class = no change; viability robust z-score = 1.3; caspase robust z-score = 0.12
ATF3 — viability hit class = no change; caspase hit class = no change; viability robust z-score = -0.28; caspase robust z-score = 0.63
EZH2 — viability hit class = no change; caspase hit class = no change; viability robust z-score = 0.09; caspase robust z-score = 1.54
